# Data reported in PubChem BioAssay AID493014 (National Center for Advancing Translational Sciences (NCATS), 2011).
# The list shows a part of the results. Shown are side measurements of this screen, not its main read-out; they come without a call. The list favours compounds with an active or inconclusive main result. The note in brackets gives the kind of curve behind each potency; many fits are weak.
# Experiment: qHTS Assay to Find Inhibitors of Chronic Active B-Cell Receptor Signaling
# Conditions: ABC-DLBCL IkBa-CBG/CBR reporter, luminescence ratio (green luciferase fused to IkBa over red control in TMD8 lymphoma cells), 4 h
# How it was run: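 Compounds up to 46 uM were incubated four hours with TMD8 cells whose green CBG68 luciferase is fused to IkappaBalpha; red CBR luminescence normalised the signal, and concentration-effect curves were fitted to fusion, red and ratio data.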
# [1] = measured here: CBR red luminescence, cell number
# [2] = measured here: IkBa-CBG green luminescence
smiles,measurement,setting,value
Cc1cc2c(OCC(O)CNCc3ccco3)cccc2[nH]1 (stereo unspecified),AC50,[1],"14.1 µM [falling, partial curve, poor fit]"
O=C1OCCC1Sc1nnc(-c2cccc(Br)c2)o1 (stereo unspecified),AC50,[1],"25.9 µM [falling, partial curve, poor fit]"
Cn1nnc2c(NCc3ccc(Cl)cc3)ncnc21,AC50,[1],"22.4 µM [falling, single point]"
O=C(NC1CCCCC1)N1CCN(C(c2ccccc2)c2ccccc2)CC1,AC50,[1],"29.1 µM [falling, single point]"
N=c1scc(-c2ccccc2)n1/N=C/c1ccco1,AC50,[1],"11.6 µM [falling, partial curve, poor fit]"
same,AC50,[2],"20.6 µM [rising, partial curve, poor fit]"
O=C(c1ccc(F)cc1)n1ccc(-c2cnc(-c3ccccc3)s2)n1,AC50,[1],"16.4 µM [falling, single point]"
O=C(NCc1ccco1)C1CC(c2ccccc2O)=NO1 (stereo unspecified),AC50,[1],"10 µM [falling, partial curve]"
CCc1nnc(NC(=O)CCC(=O)N2CCN(C3c4ccccc4-c4ccccc43)CC2)s1,AC50,[1],"4.11 µM [rising, partial curve, poor fit]"
Cc1nnc(SC(C)C(=O)NCC2CCCO2)s1 (stereo unspecified),AC50,[1],"29.1 µM [rising, single point]"
Cc1cccc(N=C2NC(=O)/C(=C/c3cccnc3)S2)c1C,AC50,[1],"12.6 µM [falling, partial curve, poor fit]"
Cn1c(=O)c(C(=O)Nc2ccccn2)c(O)c2ccccc21,AC50,[1],"7.94 µM [falling, partial curve, poor fit]"
Cc1cc(C(C)(C)C)oc1C(=O)N(CC(=O)NC1CCCC1)c1c(C)cccc1C,AC50,[1],"14.6 µM [falling, single point]"
CCc1ccc(-c2cc(C(=O)NN3CCOCC3)c3ccccc3n2)s1,AC50,[1],"11.2 µM [rising, partial curve, poor fit]"
O=C(COc1ccc([N+](=O)[O-])cc1)N1CCc2ccccc2C1,AC50,[1],"20 µM [rising, single point]"
OCCCNc1nc(-c2ccc(Cl)cc2)nnc1-c1ccc(Br)cc1,AC50,[1],"14.6 µM [falling, partial curve]"
O=C(O)c1ccc(-c2nc3scc(-c4ccccc4)c3c(=O)[nH]2)cc1,AC50,[1],"2 µM [falling, full curve, poor fit]"
Cc1ccc(C(C)C)c(OCc2nn(CC(=O)c3ccc(OC(F)F)cc3)c3[n+]2CCCCC3)c1,AC50,[1],"12.6 µM [falling, partial curve, poor fit]"
Cc1ccc(NC2=CC(=O)CC(c3ccccc3)C2)cc1 (stereo unspecified),AC50,[1],"13 µM [rising, partial curve, poor fit]"
COc1ccc(/C=C/C(=O)ONC2=NCCCCC2)cc1OC,AC50,[1],"35.5 µM [rising, single point]"
Cc1sc2ncnc(N3CCC(C(=O)Nc4nc(-c5ccc(F)cc5)cs4)CC3)c2c1C,AC50,[1],"5.8 µM [rising, full curve]"
COC(=O)c1sc(-c2ccc(Cl)cc2)cc1N,AC50,[1],"0.316 µM [rising, full curve, poor fit]"
COc1c(C)cc(C(=O)C2CCCN(C(=O)c3cc(C)n(C)n3)C2)cc1C (stereo unspecified),AC50,[1],"4.47 µM [rising, full curve, poor fit]"
CC(=O)C1(C)N(O)C(C)(C)C(c2cccs2)=[N+]1[O-] (stereo unspecified),AC50,[1],"3.55 µM [falling, partial curve, poor fit]"
COc1ccccc1OCCOc1ccc(/C=N/n2cnnc2)cc1,AC50,[1],"20.6 µM [rising, single point]"
CC(C)c1cc(C(=O)NC2CCCCC2)no1,AC50,[1],"8.2 µM [falling, partial curve]"
CCCCNC(=O)CSc1nc2cc3c(cc2c(=O)n1CCCC(=O)NCCc1ccc(OC)c(OC)c1)OCO3,AC50,[1],"0.282 µM [rising, full curve, poor fit]"
Cc1ccc(S(=O)(=O)Nc2c(C)nc3nc(C)[nH]n3c2=O)cc1,AC50,[1],"0.447 µM [falling, partial curve, poor fit]"
CCc1ccc2oc(=O)cc(CN3CCN(c4ccc(F)cc4)CC3)c2c1,AC50,[1],"14.1 µM [falling, partial curve, poor fit]"
CCN(CC)S(=O)(=O)c1ccc2[nH]cc(C(=O)NCCc3ccc(OC)c(OC)c3)c(=O)c2c1,AC50,[1],"2.31 µM [rising, partial curve, poor fit]"
O=C(COC(=O)CCC(=O)c1ccc(Cl)cc1)NCc1ccco1,AC50,[1],"35.5 µM [falling, single point]"
C[N+](C)(C)CC(=O)N1CCN(c2ccc3ccccc3n2)CC1,AC50,[1],"17.8 µM [rising, single point]"
Cn1c(CCN2CCCCC2)nc2cc(NC(=O)C3CCCCC3)ccc21,AC50,[1],"14.1 µM [falling, partial curve, poor fit]"
COC(=O)c1ccccc1NC(=O)c1ccc(COc2cccc3ccccc23)o1,AC50,[1],"4.61 µM [falling, full curve, poor fit]"
COc1cc(/C=C(\C#N)c2nc3ccccc3[nH]2)ccc1Oc1ccc([N+](=O)[O-])cn1,AC50,[1],"3.16 µM [falling, partial curve]"
CS(=O)(=O)c1ccc(S(=O)CC(=O)Oc2ccc(Cl)cc2)c([N+](=O)[O-])c1 (stereo unspecified),AC50,[2],"35.5 µM [falling, partial curve, poor fit]"
CCN(CC)c1ccc(/C=N/NC(=O)c2cc(C)nc3ccccc23)cc1,AC50,[1],"11.2 µM [rising, partial curve, poor fit]"
COc1ccc(S(=O)(=O)N2CCC(C(=O)N(C)Cc3ccc(C)o3)CC2)cc1OC,AC50,[1],"18.4 µM [rising, partial curve, poor fit]"
O=S(=O)(c1cccs1)N1CCN(S(=O)(=O)c2cccs2)CC1,AC50,[1],"11.2 µM [rising, single point]"
Cc1cccc(C(=O)Nc2ccc(O)cc2C(=O)O)c1,AC50,[1],"0.316 µM [falling, full curve]"
Cc1cccc(C(=O)NCC(=O)NC(C)CCc2ccccc2)c1 (stereo unspecified),AC50,[1],"20 µM [falling, single point]"

# Copied from above for reference:
smiles,measurement,setting,value
O=C(NC1CCCCC1)N1CCN(C(c2ccccc2)c2ccccc2)CC1,AC50,[1],"29.1 µM [falling, single point]"
N=c1scc(-c2ccccc2)n1/N=C/c1ccco1,AC50,[1],"11.6 µM [falling, partial curve, poor fit]"
same,AC50,[2],"20.6 µM [rising, partial curve, poor fit]"
O=C(c1ccc(F)cc1)n1ccc(-c2cnc(-c3ccccc3)s2)n1,AC50,[1],"16.4 µM [falling, single point]"
O=C(NCc1ccco1)C1CC(c2ccccc2O)=NO1 (stereo unspecified),AC50,[1],"10 µM [falling, partial curve]"
CCc1nnc(NC(=O)CCC(=O)N2CCN(C3c4ccccc4-c4ccccc43)CC2)s1,AC50,[1],"4.11 µM [rising, partial curve, poor fit]"
Cc1nnc(SC(C)C(=O)NCC2CCCO2)s1 (stereo unspecified),AC50,[1],"29.1 µM [rising, single point]"
Cc1cccc(N=C2NC(=O)/C(=C/c3cccnc3)S2)c1C,AC50,[1],"12.6 µM [falling, partial curve, poor fit]"
Cn1c(=O)c(C(=O)Nc2ccccn2)c(O)c2ccccc21,AC50,[1],"7.94 µM [falling, partial curve, poor fit]"
